Laboratory results taken from the supplement of paper PMC12889115.
This is one part of the list. Values are raw readings; no control value is given beside them.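 Primary screen: polymyxin B was added at a level permeabilizing Salmonella outer membranes while sparing inner membranes. DMSO wells, both with and without polymyxin B, established maximum growth. Plate-to-plate variation meant each plate was ranked on its own, and the lowest-OD600 compounds were selected as hits.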

Test system: Salmonella enterica serovar Typhimurium SL1344
Test: bacterial growth OD600 after 18 h with compound and polymyxin B; higher = more bacterial growth (less inhibition)
Details: 50 µM, Mueller-Hinton broth

Compound | bacterial growth OD600 (polymyxin B 0.75 µg/mL) | bacterial growth OD600 (polymyxin B 1 µg/mL)
C=CCO[C@H]1[C@H](NC(=O)CSC)c2ccccc2C12CCN(Cc1ccc(Cl)cc1)CC2 | 0.949 | 
Cc1ccccc1CC(C1CCN(C(=O)/C=C/c2ccccc2)CC1)N(C)C(=O)Cn1cccn1 (stereo not drawn) | 0.778 | 
COc1cccc(OCc2nc(C(=O)NC3CCC3)co2)c1 |  | 0.938
CC(C)N(C)C(=O)C1CCCN(C2CCN(C(=O)C3CC3)CC2)C1 (stereo not drawn) | 0.85 | 
O=C1CCCCN1CCC(=O)N1CCCC(CCc2ccc(F)cc2F)C1 (stereo not drawn) | 0.91 | 
COCC(=O)Nc1cc(C(=O)NC(C)c2ccc(F)cc2)c2c(c1)ncn2CCc1ccccc1 (stereo not drawn) | 0.69 | 
Cc1ccoc1C(=O)N1CCC(CCC(=O)Nc2ccc(F)c(Cl)c2)CC1 |  | 0.888
COc1ccc(C2(CC(=O)N3CCC(Oc4ccc(F)cc4)CC3)CC(=O)N(C3CC3)C2=O)cc1 (stereo not drawn) | 0.884 | 
